Test results as given in PubChem BioAssay AID445 (National Center for Advancing Translational Sciences (NCATS), 2006).
Some of the results follow. These are further read-outs of the screen, such as a control signal, another cell line or another target. No call is given for them. Compounds called inactive in the main read-out are mostly missing here. The note in brackets gives the kind of curve behind each potency; many fits are weak.

experiment: IkB Signaling; conditions: ABC-DLBCL IkBa-CBG/CBR dual luciferase ratio (green luciferase fused to IkBa over red control in OCI-Ly3 lymphoma cells), 4 h; measured here: control luc red channel unless noted
How it was run: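 Luminescence ratio of IκBα-fused green versus native red beetle luciferase in OCI-Ly3 cells, 4 h post-doxycycline with compound; red signal alone, scaled from basal (0%) to zero light (-100%), flagged nonspecific or cytotoxic effects.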

Question: For `COc1cccc(C2C(C(=O)Nc3ccc(C)cc3C)=C(C)Nc3nc4ccccc4n32)c1OC` (stereo not drawn), which AC50 is on record?
Answer: Its AC50 is 25.1 µM [falling, partial curve, poor fit].

Question: For `CC1(C)C(=O)N(CC(=O)Nc2ccc(Br)cc2F)c2ccccc21`, which AC50 is on record?
Answer: The AC50 was 20 µM [falling, partial curve, poor fit].

Question: With `C=C(C)Cn1c(=O)c2c(nc3n2CCN3c2ccc(F)cc2)n(C)c1=O` as the molecule, how does the AC50 read?
Answer: Its AC50 is 39.8 µM [falling, single point].

Question: Which AC50 does the source give for `CCOc1ccc(NCc2cccn2-c2nnc(N3CCC(C(=O)NCCOC)CC3)s2)cc1` here?
Answer: The AC50 was 31.6 µM [falling, single point].

Question: With `CCOc1ccc(-c2nc(Cn3ccn4nc(-c5ccc(OCC)c(Cl)c5)cc4c3=O)c(C)o2)cc1` as the molecule, how does the AC50 read?
Answer: The AC50 was 0.2 µM [rising, full curve].

Question: For `Cc1ccccc1Nc1cc(C(=O)NCc2cccs2)c2ccccc2n1`, which AC50 is on record?
Answer: Its AC50 is 20 µM [falling, partial curve].

Question: Which AC50 does the source give for `COc1ccc(C)cc1N(C)C(=O)c1c2c(nc3ccccc13)C(=O)N(C1CCCCC1)C2` here?
Answer: Its AC50 is 12.6 µM [falling, single point].

Question: Which AC50 does the source give for `Cc1cccc(OCCn2c(SCC(=O)O)nc3ccccc32)c1` here?
Answer: Its AC50 is 0.158 µM [rising, full curve, poor fit].

Question: With `COc1ccc(Nc2ncc(C(=O)N3CCN(c4ccc(F)cc4)CC3)c3ccccc23)cc1` as the molecule, how does the AC50 read?
Answer: The AC50 was 7.94 µM [falling, partial curve].

Question: With `CCOC(=O)CCSc1nnc(-c2cccnc2)n1-c1ccccc1OC` as the molecule, how does the AC50 read?
Answer: Its AC50 is 2.51 µM [falling, partial curve].

Question: With `Cc1ccsc1C(=O)OCC(=O)c1cc2ccccc2o1` as the molecule, how does the AC50 read?
Answer: Its AC50 is 31.6 µM [falling, partial curve].

Question: With `COC(=O)c1ccc(NC(=O)c2ccccc2NS(C)(=O)=O)cc1` as the molecule, how does the AC50 read?
Answer: The AC50 was 20 µM [falling, partial curve].

Question: Which AC50 does the source give for `O=C(CN1C(=O)CCc2cc(S(=O)(=O)N3CCOCC3)ccc21)Nc1cccc(C(F)(F)F)c1` here?
Answer: The AC50 was 25.1 µM [falling, single point].

Question: With `CCOc1cccc(C(=O)Nc2cc(-c3ccc(C)cc3)no2)c1` as the molecule, how does the AC50 read?
Answer: Its AC50 is 3.98 µM [falling, partial curve].

Question: Which AC50 does the source give for `CCCCCCOc1ccc(C2C(=O)N(C3CCCCC3)CC(=O)N2CCCC)cc1` (stereo not drawn) here?
Answer: Its AC50 is 15.8 µM [falling, partial curve].

Question: For `COc1ccc(NC(=O)CNC(=O)Cn2c(C)cc3ccccc3c2=O)cc1OC`, which AC50 is on record?
Answer: Its AC50 is 5.01 µM [falling, single point].

Question: With `O=C(Nc1sc2c(c1C(=O)N1CCCCC1)CCCC2)c1ccccc1Cl` as the molecule, how does the AC50 read?
Answer: Its AC50 is 20 µM [falling, single point].

Question: For `CCCS(=O)(=O)N1CCCC(C(=O)NCCOC)C1` (stereo not drawn), which AC50 is on record?
Answer: The AC50 was 31.6 µM [rising, single point].
